Measurements as given in PubChem BioAssay AID1347423 (Functional Genomics Laboratory (NCATS/FGL), 2020).
Out of some 52,000 sequences screened, about 210 (0.4%) were called active.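 Rule for the calls: active = gene whose silencing raises cell survival under the drug, median off-target-corrected z-score across its silencing RNAs 2 or more; inactive = the rest.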 The list shows a part of the results.

Test: Resistance to Poly (ADP-Ribose) Polymerase inhibitor: Gene Identification via Genome-wide siRNA Screen
Details: mouse BRCA2 R2336H ES cells, olaparib, CellTiter-Glo viability; active compounds read high
Procedure, shortened: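 Genome-wide siRNA screen (3 siRNAs/gene, 20 nM) in mouse ES cells carrying hypomorphic BRCA2 R2336H; olaparib 500 nM added 48 h post-transfection, CellTiter-Glo viability 72 h later. Normalized to plate-median negative control; MAD z-scores, gene median, seed-adjusted.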

Row | Sequence | z-score
1 | GGAAGGAGGAAAAGUAGGUTT against Peli1 | inactive: 1.14
2 | GGUGACAAGGACGAGAUAATT against Synpo2 | inactive: -1.76
3 | GGGAAGCAAAUCUAUACCCTT against Tnfrsf11a | inactive: -1.08
4 | CCUAUCAAAGAUCAAUAGCTT against 2610507B11Rik | inactive: -0.0669
5 | GGACGGCAAGUCUUAUGUGTT against Rp1h | inactive: 0.423
6 | CUGGAUGCAUUAACUUCUUTT against Olfr1219 | inactive: 0.72
7 | GGCCAAGGUUGCUAUUAAATT against BC033915 | inactive: 1.07
8 | CCCACGUAAGAAAAAUAGCTT against G630039H03Rik | inactive: -0.237
9 | GCAAUGUUCUCCGUAAACATT against Acas2 | inactive: 0.804
10 | GCACUCAUUGCCAGGGUCATT against Pycard | inactive: -0.13
11 | GGAGUUAAAUAAACACUGATT against Rnf151 | inactive: -0.0623
12 | GGUGUUGGAUCAUGAUGUUTT against Nf2 | inactive: 0.291
13 | GGCUUUCGAAGGCAGAAGATT against 4930486L24Rik | inactive: 0.152
14 | GGCAGUAUCAAAGAAAUUGTT against Rps6ka3 | inactive: 0.767
15 | GGUGUCUCCCUUUCUCCUUTT against Rpp14 | inactive: -1.03
16 | GCCUGACAUCAGUACCUUUTT against 4632424B03Rik | inactive: -2.15
17 | GGUUAUUUCGGGAGAUAAGTT against 4921532K09Rik | inactive: -1.89
18 | GGUCUGUACUUUUCUAGUGTT against Olfr394 | inactive: 1.02
19 | GCAUGAAUUCAAAUUGCCATT against Eltd1 | inactive: -0.201
20 | GGACUUUAAAUGCAAUAUCTT against Trps1 | inactive: 1.05
21 | CCUAUUGUGAGCUUAAUGCTT against Nrxn2 | inactive: 0.505
22 | GGAGACCAAAAUUUCUUGGTT against Sox9 | inactive: 1.05
23 | GGGUCUUUCUCCUUAGCCCTT against BC025600 | inactive: 0.0582
24 | GGUUUUAGAGGAAAUCGUATT against Arl6ip4 | inactive: 2.23
25 | CGACCUAAUCACUCAGCUUTT against Tubgcp2 | inactive: -1.76
26 | GCUUGUCAAAUAAACCAAUTT against Vdr | inactive: -1.01

Row | Sequence | z-score
27 | GGGAGACCAUUGAAGGCAUTT against Gm457 | inactive: 0.933
28 | GGAAGGUAAAAUUGAGAUCTT against Trpv2 | inactive: 0.596
29 | GCUAGAAAUGAUUUAUGUGTT against A630018P17Rik | inactive: 0.104
30 | GGCCAAGUUCCUUUGCAUATT against 9030625A04Rik | inactive: -0.269
31 | GGGUAAUUAUUGUUUUCUGTT against 1300018P11Rik | inactive: 0.755
32 | GGACGGACAUUUAUGACCCTT against Cpsf3 | inactive: -0.072
33 | GGAGAAAUUCGACUGAAAATT against Pcdhb13 | inactive: 1.72
34 | CAGGCCUGAACUUUUUAUUTT against Olfr533 | inactive: 1.63
35 | GCUACCUGCGACAAGAAAUTT against Defb23 | inactive: 0.212
36 | GGACUGAACUAACAGGAAGTT against A630024B12Rik | inactive: -2.76
37 | GGGCCUUGUUUUAGGAAUUTT against Lap3 | inactive: -0.0978
38 | GCAAAAGUGAUAUUUGCACTT against LOC213043 | inactive: 1.54
39 | GCCCGCCUACUUUGAAGAATT against Slc17a7 | inactive: 0.22
40 | GCUCAAUCUCUCUGAGACCTT against Vax1 | inactive: 0.858
41 | GGUCUUCAACAACAUUAUCTT against C630004H02Rik | inactive: 0.314
42 | GGCAGGGAGCUUCUAGACUTT against Kiss1 | inactive: 0.285
43 | GGAGCUGACGUGCUACUUATT against Apeg1 | inactive: 0.219
44 | GCACAGAGGUCAGUUAAAGTT against Siat8c | inactive: -0.712
45 | CGAUUAAAAAGGGACAUAUTT against Grid1 | inactive: -1.64
46 | GGUUCUCUGCCAGUUCUGUTT against Mid1 | inactive: -0.675
47 | GGCAAAAAUUACCUGUUGATT against Alms1 | inactive: 0.211
48 | GCAGGAGUUUAUCAGAGGATT against Prim2 | inactive: -1.79
49 | GGGAAUUAACCCUAGUGCUTT against B4galt3 | inactive: -0.797
50 | CCUUUUAGGGAAAUUUGCATT against Mcmdc1 | inactive: 0.0862
51 | CGAAUGACUCGUUUGUUAATT against 1700072E05Rik | inactive: 0.836
52 | GGAGAAGAAUAGGAAUGCATT against Anpep | inactive: 0.227

Records 6–11, reprinted for reference:
Row | Sequence | z-score
6 | CUGGAUGCAUUAACUUCUUTT against Olfr1219 | inactive: 0.72
7 | GGCCAAGGUUGCUAUUAAATT against BC033915 | inactive: 1.07
8 | CCCACGUAAGAAAAAUAGCTT against G630039H03Rik | inactive: -0.237
9 | GCAAUGUUCUCCGUAAACATT against Acas2 | inactive: 0.804
10 | GCACUCAUUGCCAGGGUCATT against Pycard | inactive: -0.13
11 | GGAGUUAAAUAAACACUGATT against Rnf151 | inactive: -0.0623

Later entries

Row | Sequence | z-score
53 | GGUGUUGAGAUCAUUCUGCTT against Ors16 | inactive: 0.0914
54 | GGAUUUCAACAGACAGGUGTT against BC017133 | inactive: 1.64
55 | GGCAAAAACUGCUGAUCUGTT against Tex9 | inactive: 0.443
56 | GGAACCAAAGUCAAAGGAGTT against Fip1l1 | inactive: -2.85
57 | GCGGUCUGUCCCUACUAAUTT against Dnajc4 | inactive: -0.859
58 | CCCUGUAAGGUUGAUUGUGTT against Oog3 | inactive: -0.971
59 | GCUGAUUAGCCAUGUAAUUTT against Cebpg | inactive: -1.53
60 | GGUAACUGAUUGCUUAGAUTT against 2410004J23Rik | inactive: -1.53
61 | GGAAAAAGACUUCUAUCACTT against D730001G18Rik | inactive: 1.29
62 | GGUGGAGAAGCAGAUGCUUTT against Nek2 | inactive: -0.475
63 | GGGUAGGCAAAGUUUUCAATT against 1700029M20Rik | inactive: -0.896
64 | GGGCAUUUUUGAGAUGGUUTT against Syngr2 | inactive: 0.851
65 | GGAAUCAAUAAAUGUCUACTT against Cyb561 | inactive: 0.995
66 | GGAACAAAGAUGUCAAACATT against Olfr466 | inactive: 0.798
67 | GGUUCUUGGGCACCAUUAUTT against Olfr786 | inactive: -2.43
68 | CCUUCCUAACCAAUGAUGATT against AW121567 | inactive: -0.166
69 | GGAGGAAGUUGAACUAUUGTT against Brd3 | inactive: -2.24
70 | CGAUUUCGCUGUUACUAAATT against Slc2a3 | inactive: 0.997
71 | GCCGUUUGGUUUCGAACUUTT against Oact2 | inactive: -1.02
72 | CCCAGGACGACGACUUUUUTT against 0710005I19Rik | inactive: 0.881
73 | CCUAAAUCUAUGAUGAAGATT against Cct3 | inactive: -0.132
74 | GCAGUCCUCGUCCUCAAAGTT against 1110056N09Rik | inactive: -0.502
75 | UAUAAUACUUCCCUUGCUGTT against Sox15 | inactive: 0.11
76 | GGAAGAUGUGGAAAAAGCGTT against Smarca2 | inactive: 1.39
77 | CCUAGUAAUGUCCAUUGUGTT against 2310067E08Rik | inactive: 0.0763
78 | GGAAGACACAUUUUUCCAUTT against Serpinb9e | inactive: -0.145

Row | Sequence | z-score
79 | GGUCUAUGUACUCGCCAAATT against Ptpns1 | inactive: -0.633
80 | GCGUAUAGGUGAUGUACAGTT against Smad3 | inactive: -0.697
81 | CGCUAACUUCCAAGUGCCUTT against Tacstd2 | inactive: 1
82 | CACUGCUGUAAUCCCUAUGTT against Olfr1002 | inactive: 0.747
83 | GUGUUUCCUUGUUAAGAUUTT against Cno | inactive: -0.695
84 | GGGUGCUUUUCUGAAAGUATT against Olfr1342 | inactive: -0.949
85 | GGCCUUGUUUUUAAGUAAATT against Atp12a | inactive: -0.112
86 | GUGGACUUUUAGCAAUCAGTT against Olfr98 | inactive: 1.04
87 | CCAGGUGUUUGAUGCAUUCTT against LOC436240 | inactive: -1.2
88 | GCUAGAGACUGUUUGCACGTT against 4432406C08Rik | inactive: 0.531
89 | CCAAAGGGAAGAGUUAUGCTT against 1110001A23Rik | inactive: -1.17
90 | CCUACACAAAAUCACUUUGTT against 4921536I21Rik | inactive: -0.568
91 | GGAAAAUCAAGUGCAAACUTT against Fgfr1op | inactive: 0.229
92 | GGCUCUGAGACACAUCUACTT against Cpt1b | inactive: 0.378
93 | GGUCUUCAAAGACAUCAGCTT against F11 | inactive: 0.251
94 | GCUCAAGGUCUCAUUUUUATT against Il18bp | inactive: -0.0178
95 | GGAAACCUACCGUUACCUATT against Kcnj5 | inactive: 1.23
96 | GGUUCCUGAACAUCCUUUUTT against Hyal3 | inactive: 0.232
97 | GGAUCACCACUACUUUAAATT against Cops5 | inactive: -1.1
98 | GGUCAGAAUGAAUUCAGUUTT against Il10rb | inactive: -1.37
99 | GGACAUGGGUGAUAAAGUUTT against 9330129D05Rik | inactive: 0.289
100 | GGUCUUCUUUGAUGUGAGGTT against Ppic | inactive: 0.259
101 | CCCUCAUUUACUCUAGUAATT against Defb12 | inactive: -0.297
102 | GCAAUUGAAAGCUUCGCCCTT against Mcf2l | inactive: -0.459
103 | GGACUUUUUAUACUGUGGATT against 2-Sep | inactive: -0.863
104 | GGUGCUUUGCUCUUUCUUGTT against 9130413I22Rik | inactive: 0.0478

As entered above:
GUGUUUCCUUGUUAAGAUUTT against Cno | z-score: inactive: -0.695
GCUCAAGGUCUCAUUUUUATT against Il18bp | z-score: inactive: -0.0178
GGAUCACCACUACUUUAAATT against Cops5 | z-score: inactive: -1.1
